In PMC10175282:
No constants are given. Whether binding was seen depends on the method and setting. In cells and extracts the contact can be indirect. A yes stands for co-enrichment or nearness to the bait. Other partners may have been found.

T1: Ubp3-FTpA (S. cerevisiae) (UniProt Q01477)
T1 sequence: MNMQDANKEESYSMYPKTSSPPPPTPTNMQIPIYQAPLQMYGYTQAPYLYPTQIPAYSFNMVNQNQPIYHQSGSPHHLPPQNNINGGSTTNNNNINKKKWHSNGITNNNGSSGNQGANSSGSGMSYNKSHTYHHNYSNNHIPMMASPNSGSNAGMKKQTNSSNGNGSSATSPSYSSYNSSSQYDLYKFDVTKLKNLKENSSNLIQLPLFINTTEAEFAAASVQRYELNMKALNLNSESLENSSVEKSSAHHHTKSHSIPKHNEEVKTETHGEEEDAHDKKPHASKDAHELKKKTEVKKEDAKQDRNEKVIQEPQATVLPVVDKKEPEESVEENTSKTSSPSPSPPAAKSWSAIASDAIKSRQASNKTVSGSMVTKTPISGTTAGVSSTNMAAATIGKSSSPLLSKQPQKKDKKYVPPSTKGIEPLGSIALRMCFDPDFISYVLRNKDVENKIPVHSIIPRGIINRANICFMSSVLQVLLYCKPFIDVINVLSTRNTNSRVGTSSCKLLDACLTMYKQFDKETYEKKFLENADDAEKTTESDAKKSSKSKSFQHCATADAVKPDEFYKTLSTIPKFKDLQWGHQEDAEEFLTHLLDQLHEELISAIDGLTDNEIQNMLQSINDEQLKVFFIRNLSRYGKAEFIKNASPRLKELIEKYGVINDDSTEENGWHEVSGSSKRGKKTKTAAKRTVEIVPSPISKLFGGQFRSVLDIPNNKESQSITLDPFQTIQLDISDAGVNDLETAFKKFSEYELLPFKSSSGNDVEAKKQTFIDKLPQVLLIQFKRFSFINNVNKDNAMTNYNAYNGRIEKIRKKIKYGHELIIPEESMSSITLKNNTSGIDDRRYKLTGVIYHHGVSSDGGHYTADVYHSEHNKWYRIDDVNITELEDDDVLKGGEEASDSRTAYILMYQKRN

T2: Otu2-FTpA (S. cerevisiae) (UniProt P38747)
T2 sequence: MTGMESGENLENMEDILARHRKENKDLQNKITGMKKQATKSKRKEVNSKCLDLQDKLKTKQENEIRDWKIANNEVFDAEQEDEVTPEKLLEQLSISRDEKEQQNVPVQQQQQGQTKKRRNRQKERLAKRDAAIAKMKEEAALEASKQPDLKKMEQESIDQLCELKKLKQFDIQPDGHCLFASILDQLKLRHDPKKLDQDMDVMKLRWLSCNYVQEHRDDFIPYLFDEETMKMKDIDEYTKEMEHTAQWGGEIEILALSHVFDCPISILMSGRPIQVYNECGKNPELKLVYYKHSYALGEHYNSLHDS


Key:
[1] = target: T1, Ubp3-FTpA (S. cerevisiae); assay: affinity purification with mass spectrometry; FTpA-tagged bait from yeast lysate on rabbit IgG Dynabeads, seven washes, S7 nuclease treatment, TEV elution ("TEV" sample); label-free LC-MS/MS, Otu2 against Ubp3 purification
[2] = target: T2, Otu2-FTpA (S. cerevisiae); assay: as above

| Binder | binding [1] | binding [2] |
| --- | --- | --- |
| Bre5 (protein, UniProt P53741 1-515) MGVTVQDICFAFLQNYYERMRTDPSKLAYFYASTAELTHTNYQSKSTNEKDDVLPTVKVTGRENINKFFSRNDAKVRSLKLKLDTIDFQYTGHLHKSILIMATGEMFWTGTPVYKFCQTFILLPSSNGSTFDITNDIIRFISNSFKPYVLTDASLSQSNEENSVSAVEEDKIRHESGVEKEKEKEKSPEISKPKAKKETVKDTTAPTESSTQEKPIVDHSQPRAIPVTKESKIHTETVPSSTKGNHKQDEVSTEELGNVTKLNEKSHKAEKKAAPIKTKEGSVEAINAVNNSSLPNGKEVSDEKPVPGGVKEAETEIKPIEPQVSDAKESGNNASTPSSSPEPVANPPKMTWASKLMNENSDRISKNNTTVEYIRPETLPKKPTERKFEMGNRRDNASANSKNKKKPVFSTVNKDGFYPIYIRGTNGLREEKLRSALEKEFGKVMRITAADNFAVVDFETQKSQIDALEKKKKSIDGIEVCLERKTVKKPTSNNPPGIFTNGTRSHRKQPLKRKD | binds | – |
| Tma64 (protein, UniProt Q04600 1-565) MFKKEPHIKALSNLKNSERKKLLQTFQKQTNNEEYSFRTSTIKQTNFNGQKSVGTVYTDENNTPILFKEKHKEQLFPTVYSCWEYPALLPIVLTHGFVIEEHLFNGANLMISGSIPPFDPRCKIGTLCGIASKQAPETVLAIGIVELDLPSFDKVIGETGVAVKIIHHFNDGLSKVFKMKLEPPFVLSTQSKDNNISSKQIESSEQIKAVEKEQEDVKEASVDVEEIAEVLDHFTVSDVDYFITRALYYTLTQDKGLELPISASNFISNHIMRNLPPIDHNEVNVKKTSWKKSAKFLKHFEKEGFLKLKGKGDDLTIVGKNTDKDELKNFVPYKLGCSKSATESRESTTSKEKTSGMMYSLTLYKPFNLAKDLLKEVNLASHTYYTSQDIRSAVSQYISVKNLADTKDKGKVIMDDLLFDMVNKKKKVLNASRIIARGEILHPLLTNNFTEFYQIFKSDDTLLFKAPMKGSLPHIKIITEMKIGRKVITRVSNFEVFQVDPESLAADLRKICSGSTTISESQTFKCAEVQVQGPHGQSIIDHLNKLGIPSKWIDFENKLKKKKRK | – | binds |
